Data taken from publication PMC7544691, “Discovery of a novel EGFR ligand DPBA that degrades EGFR and suppresses EGFR-positive NSCLC growth” (Signal Transduction and Targeted Therapy, 2020).
These are yes or no findings as the source states them, for the method shown. Binding seen in cells or lysates may run through a third protein. Some entries that bind do so weakly or less than the wild type.

Target: EGFR (endogenous, A549 cells, EGFR WT) (human (endogenous in A549)) (UniProt P00533)
Assay: co-IP; A549 treated with DPBA (6 μM) for 3, 6 and 12 h; lysate; EGFR immunoprecipitated with biotinylated cetuximab at 4 °C overnight and avidin agarose beads; Western blot

- binding: binds
B1: flotillin-1 (protein, UniProt O75955 1-427)
chain: MFFTCGPNEAMVVSGFCRSPPVMVAGGRVFVLPCIQQIQRISLNTLTLNVKSEKVYTRHGVPISVTGIAQVKIQGQNKEMLAAACQMFLGKTEAEIAHIALETLEGHQRAIMAHMTVEEIYKDRQKFSEQVFKVASSDLVNMGISVVSYTLKDIHDDQDYLHSLGKARTAQVQKDARIGEAEAKRDAGIREAKAKQEKVSAQYLSEIEMAKAQRDYELKKAAYDIEVNTRRAQADLAYQLQVAKTKQQIEEQRVQVQVVERAQQVAVQEQEIARREKELEARVRKPAEAERYKLERLAEAEKSQLIMQAEAEAASVRMRGEAEAFAIGARARAEAEQMAKKAEAFQLYQEAAQLDMLLEKLPQVAEEISGPLTSANKITLVSSGSGTMGAAKVTGEVLDILTRLPESVERLTGVSISQVNHKPLRTA
